Binding data for 1 substance are collected here from article PMC10823590.

Sequences of proteins named here, by UniProt entry; tags and fusion partners are left off. A change or cut given only in a name is not applied to a line headed by its entry. Residues count along the entry.
UniProt Q01638, residues 19-321: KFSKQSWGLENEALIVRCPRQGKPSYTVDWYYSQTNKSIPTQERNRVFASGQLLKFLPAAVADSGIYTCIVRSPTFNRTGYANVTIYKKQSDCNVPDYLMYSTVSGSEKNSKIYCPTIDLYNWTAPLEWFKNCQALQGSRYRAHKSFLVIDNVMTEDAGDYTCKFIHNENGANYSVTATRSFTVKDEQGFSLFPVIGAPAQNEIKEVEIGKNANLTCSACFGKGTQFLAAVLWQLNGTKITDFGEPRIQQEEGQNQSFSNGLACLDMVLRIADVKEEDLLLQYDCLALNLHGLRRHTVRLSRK
UniProt O95760: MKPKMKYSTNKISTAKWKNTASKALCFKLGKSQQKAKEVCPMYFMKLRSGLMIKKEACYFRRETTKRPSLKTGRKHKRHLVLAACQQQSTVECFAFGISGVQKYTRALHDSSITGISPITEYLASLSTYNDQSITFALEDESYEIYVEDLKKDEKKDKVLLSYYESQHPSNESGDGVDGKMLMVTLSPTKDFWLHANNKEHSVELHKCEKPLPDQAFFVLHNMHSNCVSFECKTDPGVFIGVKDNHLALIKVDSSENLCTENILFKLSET

Results are given in words; binding and its absence hold for the method and conditions named. Binding calls can cover weak binding; strength is not graded here.

In the assay the target is ST2 receptor (isolated protein used in ELISA and in the fluorescence emission assay) (UniProt Q01638). In words: ELISA; ELISA binding assays of IL-33 variants to ST2 or HpARI; values normalized to the binding of wild-type IL-33, n = 3. (In general: ELISA stands for enzyme-linked immunosorbent assay.)

Consider “wild-type IL-33 (interleukin-33) (from UniProt O95760) (ligand)”, for which the binding entry is on record as “binds”.
